Taken from: PubChem BioAssay AID504784 (Drosophila RNAi Screening Center, 2011)

Purpose: 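Search for regulators of lipid droplet storage in oleate-fed fly cells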 (primary screen)
Cells: Drosophila Kc167 embryonic cells
Knock-down reagent: long dsRNA against Drosophila genes, about 250 ng dsRNA per well
Time to read-out: 4 days
Treatment: cells fed 400 µM oleic acid bound to BSA
Measured: 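Cells imaged and segmented; ratio of lipid droplet area to nuclear area, log-transformed, then normalised as a B-score over the screen; higher means more stored lipid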
Reading the numbers: droplet/nuclear area B-score: higher = more stored lipid (overstorage)
The screen tested about 17,000 reagents; this is an unselected part of those that have a named target and a result. 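Each column is one replicate's B-score; the combined score over replicates was not deposited, so single values may mislead.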

no.	Gene	dsRNA	droplet/nuclear area B-score, replicate 1	droplet/nuclear area B-score, replicate 2	droplet/nuclear area B-score, replicate 3
1	cic	DRSC14276	-0.406	0.994	
2	cic	DRSC15708	0.935	0.74	
3	cic	DRSC16918	1.04	2.18	
4	cic	DRSC21243	1.44	-0.51	
5	cic	DRSC23217	1.62	0.331	
6	TwdlD	DRSC14738	1.46	3.04	
7	Obp50e	DRSC06434	-0.317	-1.14	
8	CG15629	DRSC00464	1.06	-1.39	
9	CG10934	DRSC06017	-0.893	0.502	
10	Cdk7	DRSC18451	0.163	0.438	
11	Cdk7	DRSC23327	0.00315	0.427	
12	CG11768	DRSC14377	0.143	1.06	
13	CG11768	DRSC23219	0.344	-0.406	
14	CG3117	DRSC00568	0.192	1.3	
15	Enoph	DRSC12201	1.2	-0.308	
16	Hs3st-A	DRSC06507	3.37	5.36	
17	Hs3st-A	DRSC06508	0.188	-2.41	
18	Hs3st-A	DRSC06509	-0.0197	-0.537	
19	CG7309	DRSC03045	-1.16	-0.181	
20	Alas	DRSC04044	0.0577	0.23	
21	Nrt	DRSC11237	-0.148	-1.9	1.87

Laid out differently: entries from further up
Gene | dsRNA | droplet/nuclear area B-score, replicate 1 | droplet/nuclear area B-score, replicate 2 | droplet/nuclear area B-score, replicate 3
TwdlD | DRSC14738 | 1.46 | 3.04 | –
Obp50e | DRSC06434 | -0.317 | -1.14 | –
CG15629 | DRSC00464 | 1.06 | -1.39 | –
CG10934 | DRSC06017 | -0.893 | 0.502 | –

Further records:
no.	Gene	dsRNA	droplet/nuclear area B-score, replicate 1	droplet/nuclear area B-score, replicate 2	droplet/nuclear area B-score, replicate 3
22	CG13643	DRSC14641	2.44	1.58	
23	CG13643	DRSC14642	-0.796	-0.0134	
24	path	DRSC10361	1.16	2.43	
25	CG31437	DRSC13711	1.44	0.918	-0.0199
26	p130CAS	DRSC07862	0.664	-1.04	
27	p130CAS	DRSC08257	-1.4	0.41	
28	CG6051	DRSC15956	-0.00854		
29	CG14431	DRSC17925	0.162	-0.709	
30	spag	DRSC04717	0.0352	0.0932	
31	dpn	DRSC07605	-0.282	0.98	
32	mav	DRSC17149	1.18	-0.75	
33	Pcif1	DRSC11655	0.273	1.12	1.62
34	Reepl1	DRSC19418	-1.07	-1.47	-0.233
